Experimental data: patent publication US20140024594A1
No constants are given. Whether binding was seen depends on the method and setting. In cells and extracts the contact can be indirect. Some results given as binding are weak or reduced against the parent protein; the word gives no strength.

Target: T1, MG53 (mitsugumin 53, TRIM72), endogenous mouse protein from skeletal muscle (mouse) (UniProt Q1XH17)
T1 sequence (looked up): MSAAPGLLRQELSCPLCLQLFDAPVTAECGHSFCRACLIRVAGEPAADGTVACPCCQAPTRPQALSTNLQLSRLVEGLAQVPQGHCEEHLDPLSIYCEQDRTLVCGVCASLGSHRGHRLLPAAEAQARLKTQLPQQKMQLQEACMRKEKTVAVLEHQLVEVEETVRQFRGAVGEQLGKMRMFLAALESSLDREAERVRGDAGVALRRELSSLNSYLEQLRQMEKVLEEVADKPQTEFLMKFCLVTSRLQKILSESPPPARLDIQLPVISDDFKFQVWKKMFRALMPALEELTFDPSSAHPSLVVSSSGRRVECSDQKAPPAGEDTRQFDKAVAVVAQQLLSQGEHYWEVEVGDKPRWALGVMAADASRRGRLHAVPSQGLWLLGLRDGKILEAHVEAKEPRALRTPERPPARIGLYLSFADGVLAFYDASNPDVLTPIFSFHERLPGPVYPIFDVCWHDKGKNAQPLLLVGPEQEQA
Test: co-immunoprecipitation from mouse gastrocnemius skeletal muscle lysate with anti-MG53 and anti-caveolin-3 antibodies

B1: caveolin-3, endogenous mouse protein from skeletal muscle (protein, UniProt P51637 1-151, looked up)
chain: MMTEEHTDLEARIIKDIHCKEIDLVNRDPKNINEDIVKVDFEDVIAEPEGTYSFDGVWKVSFTTFTVSKYWCYRLLSTLLGVPLALLWGFLFACISFCHIWAVVPCIKSYLIEIQCISHIYSLCIRTFCNPLFAALGQVCSNIKVVLRREG
For B1, the binding was “binds”.
